Measured values from patent publication CN1930187A.
Results are given in words; binding and its absence hold for the method and conditions named. Some results given as binding are weak or reduced against the parent protein; the word gives no strength.

What was measured:
[1] = target: EGFRvIII (full length, expressed by cells: NR6 M, H1477, 300.19/EGFRvIII) (human) (UniProt P00533); experiment: EGFRvIII FACS
[2] = target: T1, EGFRvIII PEP3 peptide conjugated to OVA (EGFRvIII肽-OVA) (human); experiment: binding to pep3 (XenoMax screen)
T1 sequence (peptide, Cys 14 coupled to maleimide-activated ovalbumin (peptide,OVA 14.5,1)): LEEKKGNYVVTDHC

[3] = target: EGFRvIII-rabbit Fc fusion protein (EGFRvIII-RbFc) (human; rabbit) (UniProt P00533); experiment: rEGFRvIII Western, reduced, EGFRvIII-rabbit Fc fusion protein
[4] = target: EGFRvIII-rabbit Fc fusion protein (EGFRvIII-RbFc) (human; rabbit) (UniProt P00533); experiment: EGFRvIII Western, non-reduced (幼稚), EGFRvIII-rabbit Fc fusion protein

Measured: binding

B1: AB-EGFRvIII-XG1-095 (antibody, human IgG1, V domains shown)
VH: QVQLQESGPFLVKPSQTLSLTCTVSGGSISSGGYYWSWIRQHPGKGLEWIGFIYYRGNTYYNPSLKSRVTISVDTSKNQFSLKLSSVTAADTAVYYCARDGYCSRTGCYGGWFDPWGQGTLVTVSP
VL: DIVMTQTPLSSPVTLGQPASISCRSSQSLIHTDGNIYLSWLQQRPGQPPRLLIYKISNRFSGVPDRFSGSGAGTDFTLKISRVEAEDVGVYYCMQGTQFPITFGQGTRLEIK
binds: [1] | [2] | [3] | [4]
